At least one read-out could not be matched to a standard name with certainty.
Target: T1, GPR73 (prokineticin 1 receptor) (Homo sapiens, UniProt Q8TCW9)
T1 construct: expressed in transfected cells; host or cells: HEK 293
Assay: PK1 functional assay: Ca2+ mobilization on the FLIPR
Type: cell-based
Conditions: 10 µM
Procedure: At a time of 24 h prior to running the assay, in cell culture media (DMEM containing high Glucose and L-glutamine, 10% FBS, 1% Pen/Streptomycin, 1% Sodium Pyruvate, 20 mM HEPES, Zeocin 200 mg/L), 100 µL of 1.3*10^6/ml HEK 293 GPR73 (prokineticin 1 receptor) expressing cells were plated in a 96 well poly-d-lysine coated plate (Costar), and incubated at 37° C. and 5% CO2. On the day in which the assay was run, the media was removed and 200 µL of 5× Calcium Plus Dye (Molecular Devices) which was previously resuspended with 200 mL of assay buffer [HBSS w/Ca^2+ and Mg^2+ w/o phenol red, 20 mM HEPES, 0.1% BSA, 10 mL probenecid (710 mg probenecid in 5 mL of 1N NaOH, to which was then added 5 mL HBSS containing 20 mM HEPES)] was added to each well of the 96-well plate. The plate was incubated at 37° C. and 5% CO2 for 30 min in dark. The plate was removed and allowed to reach RT for 15 min in the dark. The assay was then run on the FLIPR. […] Baseline is described as the amount of relative fluorescence read when buffer alone is added to cells. […] Percent of control was calculated as follows: (Baseline subtracted well value is divided by baseline subtracted max value)*100. […]

Chains of the proteins cited; added tags and fusions are not shown.
UniProt Q8TCW9, whole entry, species assumed: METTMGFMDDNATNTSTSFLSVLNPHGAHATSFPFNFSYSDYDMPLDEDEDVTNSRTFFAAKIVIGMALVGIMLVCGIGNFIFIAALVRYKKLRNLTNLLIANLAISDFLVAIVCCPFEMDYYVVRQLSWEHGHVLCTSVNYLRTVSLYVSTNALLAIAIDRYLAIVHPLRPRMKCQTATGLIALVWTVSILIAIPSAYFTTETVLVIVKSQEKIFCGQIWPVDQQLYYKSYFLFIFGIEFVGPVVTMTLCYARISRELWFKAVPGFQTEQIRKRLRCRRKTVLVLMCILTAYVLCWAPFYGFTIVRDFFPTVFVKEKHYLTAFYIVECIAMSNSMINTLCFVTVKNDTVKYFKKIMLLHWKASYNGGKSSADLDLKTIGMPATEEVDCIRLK

Row | SMILES | Ca^2+ Mobilization % Inh @10 µM
1 | Nc1ncc(CCNc2nc(=O)n(Cc3ccc(F)cc3)c(=O)n2Cc2ccc(OC(F)(F)F)cc2)[nH]1 [Cpd 54, 6-[2-(2-Amino-3H-imidazol-4-yl)-ethylamino]-3-(4-fluoro-benzyl)-1-(4-trifluoromethoxy-benzyl)-1H-[1,3,5]triazine-2,4-dione] | 91%
2 | COc1ccc(Cn2c(NCCn3ccnc3N)nc(=O)n(Cc3ccc(F)cc3)c2=O)cc1 [Cpd 2, 6-[2-(2-Amino-imidazol-1-yl)-ethylamino]-3-(4-fluoro-benzyl)-1-(4-methoxy-benzyl)-1H-[1,3,5]triazine-2,4-dione] | 98%

Reference: patent US8324380B2, “Amino-heteroaryl-containing prokineticin 1 receptor antagonists” (Janssen Pharmaceutica NV, priority 2007, dated 2012)
